The list shows only some results of the screen, not a fair sample: it is rich in T/C values a quarter to a half above the control, in often repeated tests (any T/C) and in doses without a T/C. Further doses and runs are listed elsewhere. T/C is the treated group as % of the vehicle group. Some doses have a count of surviving animals in place of a T/C: the source holds a T/C of zero for them, seemingly a mark for toxic or unscored doses. Some survivor counts are full or nearly so, which does not show that the dose was tolerated: survival well below the control is almost never listed, so the zero probably covers shortened survival too. Survivors were counted at the toxicity check, usually on the fifth day, unless a day is given; later deaths do not show. Schedules are NCI's codes, read here as Q, the interval in days (D) or hours (H), X, the number of doses. Some entries hold several experiments; the values are given in rising order. For survival time, this PubChem deposit counts one and a half times the control or more as active, and values a quarter to a half above the control carry no call in these data; other NCI protocols may use other cut-offs.
Tested on: P388 leukemia ip, CD2F1 mice, survival T/C
Assay: NCI In Vivo Anticancer Drug Screen. Data for tumor model P388 Leukemia (intraperitoneal) in CD2F1 (CDF1) mice
Conditions: T/C endpoint: median survival time, higher T/C = longer survival
[1] = dose: 200.0 mg/kg/injection, schedule: Q01DX005 (ip), vehicle: saline
[2] = dose: 60.0 mg/kg/injection, schedule: Q01DX005 (ip), vehicle: saline with Tween-80
[3] = dose: 120.0 mg/kg/injection, schedule: Q01DX005 (ip), vehicle: saline with Tween-80
[4] = dose: 240.0 mg/kg/injection, schedule: Q01DX005 (ip), vehicle: saline with Tween-80
[5] = dose: 200.0 mg/kg/injection, schedule: Q01DX005 (ip), vehicle: saline with Tween-80
[6] = dose: 100.0 mg/kg/injection, schedule: Q01DX009 (ip), vehicle: saline
[7] = dose: 200.0 mg/kg/injection, schedule: Q01DX009 (ip), vehicle: Klucel (hydroxypropylcellulose) (HPC)
[8] = dose: 200.0 mg/kg/injection, schedule: Q04DX003 (ip), vehicle: saline with Tween-80
[9] = dose: 50.0 mg/kg/injection, schedule: Q01DX009 (ip), vehicle: Klucel (hydroxypropylcellulose) (HPC)
[10] = dose: 100.0 mg/kg/injection, schedule: Q01DX009 (ip), vehicle: Klucel (hydroxypropylcellulose) (HPC)

Question: Which T/C (dose: 12.5 mg/kg/injection, schedule: Q01DX001 (ip), vehicle: saline with Tween-80) does the source give for `O=NN(CCCl)C(=O)Oc1c(Cl)cc(Cl)cc1Cl` here?
Answer: 141 % of control

Question: And the T/C (dose: 25.0 mg/kg/injection, schedule: Q01DX001 (ip), vehicle: saline with Tween-80)?
Answer: 146 % of control

Question: What about the survivor count (dose: 100.0 mg/kg/injection, schedule: Q01DX001 (ip), vehicle: saline with Tween-80) of the same compound?
Answer: 3 of 5 and 5 of 5

Question: And the survivor count (dose: 150.0 mg/kg/injection, schedule: Q01DX001 (ip), vehicle: saline with Tween-80)?
Answer: 2 of 5

Question: What about the survivor count (dose: 200.0 mg/kg/injection, schedule: Q01DX001 (ip), vehicle: saline with Tween-80) of the same compound?
Answer: 0 of 5

Question: And the survivor count (dose: 400.0 mg/kg/injection, schedule: Q01DX001 (ip), vehicle: saline with Tween-80)?
Answer: 0 of 5

Question: Which survivor count [1] does the source give for `O=C1C(Cl)=C(NCC2CCCN3CCCCC23)C(=O)c2ccccc21` (centres undefined) here?
Answer: 0 of 6

Question: With `CCOC(=O)c1c(O)c(Cc2ccccc2)c(=O)n2c1[nH]c1cc(C)c(C)cc12` as the compound, how does the survivor count (dose: 30.0 mg/kg/injection, schedule: Q01DX005 (ip), vehicle: saline with Tween-80) read?
Answer: 6 of 6

Question: What about the survivor count [2] of the same compound?
Answer: 6 of 6

Question: And the survivor count [3]?
Answer: 6 of 6

Question: And the survivor count [4]?
Answer: 6 of 6

Question: Which survivor count (dose: 100.0 mg/kg/injection, schedule: Q01DX005 (ip), vehicle: saline with Tween-80) does the source give for `C=CC(C)(C)c1c2c(c(OC)c3ccc(=O)oc13)C=CC(C)(C)O2` here?
Answer: 6 of 6

Question: What about the survivor count [5] of the same compound?
Answer: 6 of 6

Question: With `CC1=C(C(=O)CC(=O)C(=O)Nc2ccc(Cl)cc2Cl)Sc2ccccc2N1` as the compound, how does the survivor count [4] read?
Answer: 2 of 6

Question: For `CCOC(=O)C(=CNc1cc(C)c2[nH]c3ccc(Cl)cc3c2c1C)C(=O)OCC`, which survivor count [2] is on record?
Answer: 6 of 6

Question: And the survivor count [3]?
Answer: 6 of 6

Question: With `Cc1c(COC(=O)NC2CCCCC2)c(COC(=O)NC2CCCCC2)c2n1CCc1ccccc1-2` as the compound, how does the survivor count (dose: 100.0 mg/kg/injection, schedule: Q01DX009 (ip), vehicle: distilled water + Tween-80) read?
Answer: 4 of 6

Question: What about the survivor count (dose: 200.0 mg/kg/injection, schedule: Q01DX009 (ip), vehicle: distilled water + Tween-80) of the same compound?
Answer: 3 of 6

Question: For `COC(=O)CNP(=O)(NCC(=O)OC)N(CCCl)CCCl`, which T/C (dose: 60.0 mg/kg/injection, schedule: Q01DX005 (ip), vehicle: saline) is on record?
Answer: 130 % of control

Question: `S=c1n(-c2ccc(Cl)cc2)c2nc3ccccc3nc(/c2=N\Nc2cc(Cl)ccc2Cl)n1-c1ccccn1` was tested. Which survivor count [5] did it give?
Answer: 2 of 6

Question: For `Oc1ccc(C(O)CNCCCCCCNCC(O)c2ccc(O)c(O)c2)cc1O` (centres undefined), which survivor count [6] is on record?
Answer: 2 of 6

Question: And the survivor count (dose: 200.0 mg/kg/injection, schedule: Q01DX009 (ip), vehicle: saline)?
Answer: 0 of 6

Question: `CC(NNC(=S)N1CCN(c2ccccn2)CC1)c1cc2ccccc2cn1` (centres undefined) was tested. Which survivor count (dose: 100.0 mg/kg/injection, schedule: Q04DX003 (ip), vehicle: Klucel (hydroxypropylcellulose) (HPC)) did it give?
Answer: 6 of 6

Question: What about the survivor count (dose: 200.0 mg/kg/injection, schedule: Q04DX003 (ip), vehicle: Klucel (hydroxypropylcellulose) (HPC)) of the same compound?
Answer: 6 of 6

Question: How did the T/C (dose: 1.0 mg/kg/injection, schedule: Q01DX001 (ip), vehicle: water) turn out when `CCSCCNC(=O)[C@@]1(O)[C@H](O)[C@]2(CC)C=CCN3CC[C@@]4(c5cc([C@@]6(OC(C)=O)C[C@H]7C=C(CC)CN(CCc8c6[nH]c6ccccc86)C7)c(OC)cc5N(C)[C@@H]14)[C@@H]32` was run?
Answer: 129 % of control

Question: And the T/C (dose: 2.0 mg/kg/injection, schedule: Q01DX001 (ip), vehicle: water)?
Answer: 132 and 139 % of control

Question: What about the T/C (dose: 4.0 mg/kg/injection, schedule: Q01DX001 (ip), vehicle: water) of the same compound?
Answer: 149 % of control

Question: And the T/C (dose: 8.0 mg/kg/injection, schedule: Q01DX001 (ip), vehicle: water)?
Answer: 142 % of control

Question: What about the survivor count (dose: 16.0 mg/kg/injection, schedule: Q01DX001 (ip), vehicle: water) of the same compound?
Answer: 3 of 6

Question: Which survivor count [7] does the source give for `O=C(Cc1ccccc1)c1ccc(C(F)(F)F)cc1` here?
Answer: 6 of 6

Question: With `C[As](C)SC(CO)C1OC2OC(C)(C)OC2C1O` (centres undefined) as the compound, how does the survivor count (dose: 100.0 mg/kg/injection, schedule: Q01DX009 (ip), vehicle: saline + alcohol) read?
Answer: 0 of 6

Question: What about the survivor count (dose: 200.0 mg/kg/injection, schedule: Q01DX009 (ip), vehicle: saline + alcohol) of the same compound?
Answer: 0 of 6

Question: Which survivor count (dose: 1.87 mg/kg/injection, schedule: Q01DX005 (ip), vehicle: Klucel (hydroxypropylcellulose) (HPC)) does the source give for `CCC[CH2][Sn]([CH2]CCC)[S]CC(N)C(=O)O` (centres undefined) here?
Answer: 3 of 6

Question: What about the survivor count (dose: 7.5 mg/kg/injection, schedule: Q01DX005 (ip), vehicle: Klucel (hydroxypropylcellulose) (HPC)) of the same compound?
Answer: 3 of 6

Question: And the survivor count (dose: 15.0 mg/kg/injection, schedule: Q01DX005 (ip), vehicle: Klucel (hydroxypropylcellulose) (HPC))?
Answer: 0 of 6

Question: And the survivor count (dose: 60.0 mg/kg/injection, schedule: Q01DX005 (ip), vehicle: Klucel (hydroxypropylcellulose) (HPC))?
Answer: 0 of 6

Question: And the survivor count (dose: 120.0 mg/kg/injection, schedule: Q01DX005 (ip), vehicle: Klucel (hydroxypropylcellulose) (HPC))?
Answer: 0 of 6

Question: What about the survivor count (dose: 240.0 mg/kg/injection, schedule: Q01DX005 (ip), vehicle: Klucel (hydroxypropylcellulose) (HPC)) of the same compound?
Answer: 0 of 6

Question: Which results are given for `CCO/C(C)=N\c1nc(C)[nH]c1C(N)=O`?
Answer: survivor count (dose: 50.0 mg/kg/injection, schedule: Q01DX009 (ip), vehicle: saline): 6 of 6; survivor count [6]: 6 of 6

Question: With `COc1ccc(-c2nccc3cc(OC)c(OC)cc23)cc1OC` as the compound, how does the survivor count (dose: 100.0 mg/kg/injection, schedule: Q01DX009 (ip), vehicle: water) read?
Answer: 2 of 6

Question: Which survivor count [8] does the source give for `S=c1nc(N2CCOCC2)n(/C=C/c2ccccc2)c(=S)n1C(=N/C=C/c1ccccc1)N1CCOCC1` here?
Answer: 6 of 6

Question: Which survivor count (dose: 240.0 mg/kg/injection, schedule: Q01DX005 (ip), vehicle: saline) does the source give for `CSc1nc(C)c(C(=O)CCN2CCOCC2)s1` here?
Answer: 0 of 6

Question: For `CC1(C)NC2Cc3c([nH]c4ccccc34)C3(C)CCC1CC23` (centres undefined), which survivor count (dose: 200.0 mg/kg/injection, schedule: Q01DX005 (ip), vehicle: Klucel (hydroxypropylcellulose) (HPC)) is on record?
Answer: 0 of 5

Question: What does the source list for `Clc1ccc(C[Se][Se]Cc2ccc(Cl)cc2)cc1`?
Answer: survivor count [9]: 6 of 6; survivor count [10]: 6 of 6; survivor count [7]: 0 of 6

Question: How did the survivor count (dose: 19.0 mg/kg/injection, schedule: Q01DX005 (ip), vehicle: Klucel (hydroxypropylcellulose) (HPC)) turn out when `C=C1C(=O)O[C@H]2CC(C)C3C[C@@H](O)OC(O)[C@]3(C)C[C@@H]12` (some centres undefined) was run?
Answer: 4 of 6

Question: `CN1P(=N)(N)N=P(c2ccccc2)(c2ccccc2)N=P1(c1ccccc1)c1ccccc1` (centres undefined) was tested. Which survivor count [9] did it give?
Answer: 6 of 6

Question: And the survivor count [10]?
Answer: 4 of 6

Question: `COC(=O)C1=C(C(=O)OC)C2C=CC1C(=O)N2/C=C/c1ccccc1` (centres undefined) was tested. Which T/C [8] did it give?
Answer: 126 % of control

Question: With `CC(=O)OC1C=C(C=O)C(O)(C=O)C2(C)CCCC(C)(C)C12` (centres undefined) as the compound, how does the survivor count (dose: 6.25 mg/kg/injection, schedule: Q01DX009 (ip), vehicle: other) read?
Answer: 1 of 6

Question: And the survivor count (dose: 12.5 mg/kg/injection, schedule: Q01DX009 (ip), vehicle: other)?
Answer: 1 of 6

Question: And the survivor count (dose: 25.0 mg/kg/injection, schedule: Q01DX009 (ip), vehicle: other)?
Answer: 0 of 6

Question: Which survivor count [4] does the source give for `CC(=O)SSC12CC3CC(CC(C3)C1)C2` here?
Answer: 3 of 6

Question: Which T/C (dose: 50.0 mg/kg/injection, schedule: Q01DX005 (ip), vehicle: saline) does the source give for `C[CH2][Sn]([CH2]C)([CH2]CC(=O)OC)[CH2]CC(=O)OC` here?
Answer: 126 and 130 % of control

Question: What about the T/C (dose: 100.0 mg/kg/injection, schedule: Q01DX005 (ip), vehicle: saline) of the same compound?
Answer: 141 % of control

Question: What about the survivor count [1] of the same compound?
Answer: 1 of 6

Question: `CC1CCC(C(C)C)C(NC(=O)c2ccc[n+](C)c2)C1` (centres undefined) was tested. Which survivor count (dose: 100.0 mg/kg/injection, schedule: Q04DX002 (ip), vehicle: saline) did it give?
Answer: 0 of 6

Question: What about the survivor count (dose: 200.0 mg/kg/injection, schedule: Q04DX002 (ip), vehicle: saline) of the same compound?
Answer: 0 of 6

Question: Which results are given for `CC1(C)N=C(N)N=C(N)N1c1ccc(OCCOc2ccc(S(=O)(=O)F)cc2)c(Cl)c1`?
Answer: survivor count [8]: 5 of 6; survivor count (dose: 300.0 mg/kg/injection, schedule: Q04DX003 (ip), vehicle: saline with Tween-80): 1 of 6; survivor count (dose: 400.0 mg/kg/injection, schedule: Q04DX003 (ip), vehicle: saline with Tween-80): 6 of 6

Question: `CCCCCCCCC(=O)CC` was tested. Which survivor count (dose: 400.0 mg/kg/injection, schedule: Q01DX009 (ip), vehicle: saline with Tween-80) did it give?
Answer: 2 of 6

From PubChem BioAssay AID330 (DTP/NCI, 2004)
